The test deals with Dynein intermediate chain (endogenous, mouse brain) (mouse (endogenous in brain)). Briefly: co-IP.

Results are given in words; binding and its absence hold for the method and conditions named. In cells and extracts the contact can be indirect.

The record followed here is doi:10.1101/556266.

B1: GM130 (endogenous, mouse brain) (protein, UniProt Q921M4 1-999)
chain: MWPPRFPPPRPGMSEETRQSKLAAAKKKLREYQQKNSPGVPAGAKKKKKIKNGHSPERPTASDCQSPENVPTDHIAPAPPTAATDTMFLGVTPSPDADLTQSHDAGNCSNLMEETKTFSSTESLRQLSQQLNGLVSESTSYINGEGLTSSNMKELENRYQELAVALDSSYVTNKQLSSTIEELKQQNQDTLDQLEKEKKDYQQKLAKEQGSLREQLQVHIQTIGILVSEKAELQTALAHTQQAARQKAGESEDLASRLQSSRQRVGELERTLSTVSTQQKQADRYNKDLTKERDALKLELYKNSKSNEDLRQQNSELEEKLRVLVAEKAAAQLGVEELQKKLEMSELLLQQFSSQSSAAGGNEQLQHAMEERAQLETHVSQLMESLKQLQVERDQYAENLKGESAMWQQRVQQMAEQVHTLKEEKEHRERQVQELETSLAALRSQMEEPPPPEPPAGPSEAEEQLQGEVEQLHKELERLTGQLRAQVQDNESLSHLNREQEGRLLELEREAQRWSEQAEERKQILESMQSDRTTISRALSQNRELKEQLAELQNGFVRLTNENMEITSALQSEQHVKKELARKLGELQERLGELKETVELKSQEAQGLQEQRDQCLSHLQQYAAAYQQHLAAYEQLTSEKEAIHKQLLLQTQLMDQLQHEEVQGKMAAELARQELQEAQERLKATSQENQQLQAQLSLLVLPGEGDVDQEEEDEEVPQSSLAIPEDLDSREAMVAFFNAAIARAEEEQARLRVQLKEQKARCRSLSHLAAPVQSKLEKEAVVPRNVDDSASEESNQALHVAMEKLQSRFLEVMQEKVELKERVEELEHCCIQLSGETDTIGEYIALYQNQRAVLKARHLEKEEYISRLAQDKEEMKVKLLELQELVLRLVNERNEWQGKFLAVSQNPGDVLTPVPTGSQEFGAADQQDDLREVSLADDIEPAQGEAGVPAPHENPTAQQIMQLLREIQNPRERPGLGSNPCIPFFYRADENDEVKIMVV
On to B1, for which the binding entry was “no binding”.
